Experimental data published in patent US8629318B2, “Transgenic animals for analyzing CYP3A4 cytochrome P450 gene regulation” (University of Sydney, priority 2000, dated 2014).
“Also recorded” adds a separate entry of the source.

System: −13CYP3A4/lacZ transgene
Assay: β-galactosidase activity in total liver lysates, ONPG assay, line 9/4
Assay type: in vivo, mouse

C[C@@H]1C[C@H]2[C@@H]3CCC4=CC(=O)C=C[C@]4(C)[C@@]3(F)[C@@H](O)C[C@]2(C)[C@@]1(O)C(=O)COP(=O)(O)O [dexamethasone, dexamethasone phosphate]
relative degree of induction of transgene, β-galactosidase activity in liver lysates (line 9/4, 100 mg/kg i.p. daily for 4 days, FIG. 3A, 100 mg/kg): most potent xenobiotic activators; also recorded: most potent inducers | dose response of transgene expression, β-galactosidase activity in liver homogenates (male mice line 9/4, 1 to 100 mg/kg, FIG. 4A): increased β-galactosidase activity; also recorded: dose-dependent
